Assay results as given in patent US20250194601A1, “PYRIDAZINONE COMPOUND OR SALT THEREOF AND PEST CONTROL AGENT CONTAINING IT” (ISHIHARA SANGYO KAISHA, LTD., priority 2022, published 2025).
Some entries share one result that the patent states for a list of compounds.

Test system: two-spotted spider mite (Tetranychus urticae)
Assay: Test Example 3: effects against two-spotted spider mite, kidney bean leaf dip
Assay type: in vivo
Conditions: 200 ppm, adults, 3rd day after the application
Protocol: Test on effects against two-spotted spider mite (Tetranychus urticae) In a chemical solution of a test compound at a concentration of 800 ppm, 200 ppm or 50 ppm, a leaf of kidney bean on which about 20 adults of two-spotted spider mite had been released, was dipped. After the chemical solution dried in air, the leaf was left in a constant temperature chamber with lighting at 25° C. On the 3rd day after the application, the number of dead adults was counted, and the mortality (%) was calculated by the following formula. Adults that dropped from the leaf or adults that were moribund were counted as dead adults.

Structure (SMILES) | mortality
CCc1nn(-c2c(Br)cc(C(F)(F)F)cc2I)c(=O)c(-n2ccc(C(F)(F)F)n2)c1O [2-106] | ≥ 80%
CCc1nn(-c2c(C)cc(F)cc2C)c(=O)c(-n2ccc(C(F)(F)F)n2)c1O [2-128] | ≥ 80%
C=Cc1cc(C(F)(F)F)cc(Cl)c1-n1nc(CC)c(O)c(-n2ccc(C(F)(F)F)n2)c1=O [2-130] | ≥ 80%
CCc1cc(C(F)(F)F)cc(Cl)c1-n1nc(CC)c(O)c(-n2ccc(C(F)(F)F)n2)c1=O [2-131] | ≥ 80%
CCc1nn(-c2c(C)cc(Br)cc2Cl)c(=O)c(-n2ccc(C(F)(F)F)n2)c1O [2-133] | ≥ 80%
CCc1nn(-c2c(C)cc(C(F)(C(F)(F)F)C(F)(F)F)cc2Cl)c(=O)c(-n2ccc(C(F)(F)F)n2)c1O [2-136] | ≥ 80%
CCc1nn(-c2c(C)cc(C(F)(F)F)cc2C)c(=O)c(-n2ccc(F)n2)c1O [2-140] | ≥ 80%
CCc1nn(-c2c(C)cc(C(F)(F)F)cc2C)c(=O)c(-n2ccc(Cl)n2)c1O [2-143] | ≥ 80%
CCc1nn(-c2c(C)cc(C(F)(F)F)cc2C)c(=O)c(-n2ccc(Br)n2)c1O [2-144] | ≥ 80%
Cc1ccn(-c2c(O)c(C(C)C)nn(-c3c(C)cc(C(F)(F)F)cc3C)c2=O)n1 [2-149] | ≥ 80%
CCc1nn(-c2c(C)cc(C(F)(F)F)cc2C)c(=O)c(-n2ccc(OC)n2)c1O [2-151] | ≥ 80%
CCc1nn(-c2c(Cl)cc(C(F)(F)F)cc2Cl)c(=O)c(-n2ccc(F)n2)c1O [2-169] | ≥ 80%
CCc1nn(-c2c(C)cc(OC(F)(F)F)cc2Cl)c(=O)c(-n2ccc(C)n2)c1O [2-171] | ≥ 80%
CCc1nn(-c2c(C)cc(C(F)(F)F)cc2Cl)c(=O)c(-n2ccc(C)n2)c1O [2-172] | ≥ 80%
CCc1nn(-c2c(C)cc(C(F)(F)F)cc2Cl)c(=O)c(-n2ccc(Cl)n2)c1O [2-173] | ≥ 80%
CCc1nn(-c2c(C)cc(OC(F)(F)F)cc2Cl)c(=O)c(-n2ccc(Cl)n2)c1O [2-175] | ≥ 80%
CCc1nn(-c2c(C)cc(C(F)(F)F)cc2Cl)c(=O)c(-n2ccc(Br)n2)c1O [2-177] | ≥ 80%
CCc1nn(-c2c(C)cc(OC(F)(F)F)cc2Cl)c(=O)c(-n2ccc(Br)n2)c1O [2-178] | ≥ 80%
CCc1nn(-c2c(C)cc(OC(F)(F)F)cc2Cl)c(=O)c(-n2ccc(F)n2)c1O [2-179] | ≥ 80%

Structure (SMILES) | mortality
CCc1nn(-c2c(Cl)cc(C(F)(F)F)cc2Cl)c(=O)c(-n2cccn2)c1O [2-180] | ≥ 80%
CCc1nn(-c2ccc(C(F)(F)F)cc2C)c(=O)c(-n2cccn2)c1O [2-181] | ≥ 80%
CCc1nn(-c2c(C)cc(C(F)(F)F)cc2Cl)c(=O)c(-n2cccn2)c1O [2-182] | ≥ 80%
CCc1nn(-c2c(C)cc(OC(F)(F)F)cc2Cl)c(=O)c(-n2cccn2)c1O [2-183] | ≥ 80%
CCc1nn(-c2c(C)cc(C(F)(F)F)cc2C)c(=O)c(-n2cccn2)c1O [2-184] | ≥ 80%
CCc1nn(-c2c(C)cc(OC(F)(F)F)cc2C)c(=O)c(-n2cccn2)c1O [2-185] | ≥ 80%
CCc1nn(-c2c(C)cc(OC(F)(F)F)cc2C)c(=O)c(-n2ccc(Cl)n2)c1O [2-186] | ≥ 80%
CCc1nn(-c2c(C)cc(C(F)(F)F)cc2C)c(=O)c(-n2ccc(I)n2)c1O [2-192] | ≥ 80%
CCc1nn(-c2c(C)cc(OC(F)(F)F)cc2C)c(=O)c(-n2ccc(Br)n2)c1O [2-195] | ≥ 80%
CCc1nn(-c2c(C)cc(Cl)cc2C)c(=O)c(-n2ccc(C(F)(F)F)n2)c1O [2-197] | ≥ 80%
CCc1nn(-c2c(C)cc(Cl)cc2C)c(=O)c(-n2ccc(Cl)n2)c1O [2-198] | ≥ 80%
CCc1nn(-c2c(C)cc(Br)cc2C)c(=O)c(-n2ccc(Cl)n2)c1O [2-218] | ≥ 80%
CCc1nn(-c2ccc(C(F)(F)F)cc2C)c(=O)c(-n2ccc(Cl)n2)c1O [2-222] | ≥ 80%
C=Cc1cc(C(F)(F)F)cc(C)c1-n1nc(CC)c(O)c(-n2ccc(Cl)n2)c1=O [2-224] | ≥ 80%
CCc1nn(-c2c(C)cc(C(F)(F)F)cc2C)c(=O)c(-n2cc(Cl)cn2)c1O [2-235] | ≥ 80%
Cc1cc(C(F)(F)F)cc(C)c1-n1nc(C)c(O)c(-n2cc(Cl)cn2)c1=O [2-236] | ≥ 80%
Cc1cc(C(F)(F)F)cc(C)c1-n1nc(C(C)C)c(O)c(-n2cc(Cl)cn2)c1=O [2-237] | ≥ 80%
CCc1nn(-c2c(C)cc(C(F)(F)F)cc2C)c(=O)c(-n2cc(Br)cn2)c1O [2-238] | ≥ 80%

Same assay, conditions: 800 ppm, adults, 3rd day after the application

Structure (SMILES) | mortality
CCc1nn(-c2cc(Cl)c(F)cc2Br)c(=O)c(-n2ccc(C(F)(F)F)n2)c1O [2-87] | ≥ 80%
CCc1nn(-c2cc(F)c(Cl)cc2Cl)c(=O)c(-n2ccc(C(F)(F)F)n2)c1O [2-88] | ≥ 80%
CCc1nn(-c2cc(F)c(F)cc2Br)c(=O)c(-n2ccc(C(F)(F)F)n2)c1O [2-89] | ≥ 80%
CCc1nn(-c2cc(Cl)c(Br)cc2F)c(=O)c(-n2ccc(C(F)(F)F)n2)c1O [2-90] | ≥ 80%
CCc1nn(-c2cc(Br)c(F)cc2F)c(=O)c(-n2ccc(C(F)(F)F)n2)c1O [2-91] | ≥ 80%
CCc1nn(-c2cc(F)c(F)cc2Cl)c(=O)c(-n2ccc(C(F)(F)F)n2)c1O [2-92] | ≥ 80%
CCc1nn(-c2cc(F)c(C(F)(F)F)cc2F)c(=O)c(-n2ccc(C(F)(F)F)n2)c1O [2-93] | ≥ 80%
CCc1nn(-c2cc(F)c(C(F)(F)F)cc2Cl)c(=O)c(-n2ccc(C(F)(F)F)n2)c1O [2-94] | ≥ 80%
CCc1nn(-c2cc(Cl)c(C(F)(F)F)cc2Br)c(=O)c(-n2ccc(C(F)(F)F)n2)c1O [2-95] | ≥ 80%
CCc1nn(-c2cc(Br)c(F)cc2C)c(=O)c(-n2ccc(C(F)(F)F)n2)c1O [2-96] | ≥ 80%
CCc1nn(-c2c(Cl)cc(Cl)cc2Cl)c(=O)c(-n2ccc(C(F)(F)F)n2)c1O [2-98] | ≥ 80%
CCc1nn(-c2c(Br)cc(C(F)(F)F)cc2Br)c(=O)c(-n2ccc(C(F)(F)F)n2)c1O [2-99] | ≥ 80%
CCc1nn(-c2c(C)cc(C(F)(F)F)cc2C)c(=O)c(-n2ccc(C(F)(F)F)n2)c1O [2-100] | ≥ 80%
CCc1nn(-c2c(F)cc(C(F)(F)F)cc2F)c(=O)c(-n2ccc(C(F)(F)F)n2)c1O [2-101] | ≥ 80%
CCc1nn(-c2c(Cl)cc(OC(F)(F)F)cc2Cl)c(=O)c(-n2ccc(C(F)(F)F)n2)c1O [2-102] | ≥ 80%
CCc1nn(-c2c(Cl)cc(C(F)(F)F)cc2I)c(=O)c(-n2ccc(C(F)(F)F)n2)c1O [2-103] | ≥ 80%
CCc1nn(-c2c(F)cc(C(F)(F)F)cc2Cl)c(=O)c(-n2ccc(C(F)(F)F)n2)c1O [2-104] | ≥ 80%
CCc1nn(-c2c(Cl)cc(C(F)(F)F)cc2Br)c(=O)c(-n2ccc(C(F)(F)F)n2)c1O [2-105] | ≥ 80%
CCc1nn(-c2c(C)cc(Cl)cc2Cl)c(=O)c(-n2ccc(C(F)(F)F)n2)c1O [2-107] | ≥ 80%
CCc1nn(-c2c(Br)cc(OC(F)(F)F)cc2Br)c(=O)c(-n2ccc(C(F)(F)F)n2)c1O [2-109] | ≥ 80%

Structure (SMILES) | mortality
CCc1nn(-c2c(Cl)cc(C(C)C)cc2Cl)c(=O)c(-n2ccc(C(F)(F)F)n2)c1O [2-110] | ≥ 80%
CCc1nn(-c2c(C)cc(C(F)(F)F)cc2Cl)c(=O)c(-n2ccc(C(F)(F)F)n2)c1O [2-111] | ≥ 80%
CCc1nn(-c2c(C)cc(C(F)(F)F)cc2Br)c(=O)c(-n2ccc(C(F)(F)F)n2)c1O [2-112] | ≥ 80%
CCc1nn(-c2c(Cl)cc(C(C)(C)C)cc2Cl)c(=O)c(-n2ccc(C(F)(F)F)n2)c1O [2-113] | ≥ 80%
C=Cc1cc(C(F)(F)F)cc(C=C)c1-n1nc(CC)c(O)c(-n2ccc(C(F)(F)F)n2)c1=O [2-114] | ≥ 80%
CCc1cc(C(F)(F)F)cc(CC)c1-n1nc(CC)c(O)c(-n2ccc(C(F)(F)F)n2)c1=O [2-115] | ≥ 80%
CCc1nn(-c2c(F)cc(Cl)cc2Br)c(=O)c(-n2ccc(C(F)(F)F)n2)c1O [2-116] | ≥ 80%
CCc1nn(-c2c(Br)cc(Br)cc2Br)c(=O)c(-n2ccc(C(F)(F)F)n2)c1O [2-117] | ≥ 80%
CCc1nn(-c2c(F)cc(C(F)(F)F)cc2Br)c(=O)c(-n2ccc(C(F)(F)F)n2)c1O [2-119] | ≥ 80%
CCc1nn(-c2c(C)cc(OC(F)(F)F)cc2Cl)c(=O)c(-n2ccc(C(F)(F)F)n2)c1O [2-120] | ≥ 80%
CCc1nn(-c2c(C)cc(OC(F)(F)F)cc2Br)c(=O)c(-n2ccc(C(F)(F)F)n2)c1O [2-121] | ≥ 80%
CCc1nn(-c2c(Cl)cc(F)cc2Cl)c(=O)c(-n2ccc(C(F)(F)F)n2)c1O [2-122] | ≥ 80%
CCc1nn(-c2c(C)cc(OC(F)(F)F)cc2C)c(=O)c(-n2ccc(C(F)(F)F)n2)c1O [2-123] | ≥ 80%
CCc1nn(-c2c(F)cc(F)cc2F)c(=O)c(-n2ccc(C(F)(F)F)n2)c1O [2-126] | ≥ 80%
CCc1nn(-c2c(C)cc(C(F)(F)F)cc2F)c(=O)c(-n2ccc(C(F)(F)F)n2)c1O [2-127] | ≥ 80%
CCc1nn(-c2c(Cl)cc(C(F)(F)F)c(F)c2F)c(=O)c(-n2ccc(C(F)(F)F)n2)c1O [2-137] | ≥ 80%
CCc1nn(-c2c(F)c(F)c(C(F)(F)F)c(F)c2F)c(=O)c(-n2ccc(C(F)(F)F)n2)c1O [2-139] | ≥ 80%
CCc1nn(-c2c(Cl)cc(C(F)(F)F)cc2Cl)c(=O)c(-n2ccc(I)n2)c1O [2-167] | ≥ 80%
CCc1nn(-c2c(Cl)cc(C(F)(F)F)cc2Cl)c(=O)c(-n2ccc(Cl)n2)c1O [2-168] | ≥ 80%
CCc1nn(-c2c(C)cc(C(F)(F)F)cc2C)c(=O)c(-n2cc(F)cn2)c1O [2-234] | ≥ 80%
